In the supplement of paper PMC10849652:
The list shows a part of the results.

Amino acid sequences for entries named in this document (tags omitted). A change or cut given only in a name is not applied to a line headed by its entry.
UniProt Q96CS3: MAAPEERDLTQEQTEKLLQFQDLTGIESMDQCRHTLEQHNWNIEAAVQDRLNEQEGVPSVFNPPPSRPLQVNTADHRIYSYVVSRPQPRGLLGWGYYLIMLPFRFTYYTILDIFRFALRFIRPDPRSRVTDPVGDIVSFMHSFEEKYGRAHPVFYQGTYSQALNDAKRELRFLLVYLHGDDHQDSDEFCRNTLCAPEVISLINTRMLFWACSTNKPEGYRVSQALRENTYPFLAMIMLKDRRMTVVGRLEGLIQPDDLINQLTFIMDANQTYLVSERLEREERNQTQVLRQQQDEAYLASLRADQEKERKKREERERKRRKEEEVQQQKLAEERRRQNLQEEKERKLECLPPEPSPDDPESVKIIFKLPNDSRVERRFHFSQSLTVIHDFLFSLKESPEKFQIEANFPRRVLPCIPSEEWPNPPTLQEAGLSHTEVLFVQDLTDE
UniProt Q01844: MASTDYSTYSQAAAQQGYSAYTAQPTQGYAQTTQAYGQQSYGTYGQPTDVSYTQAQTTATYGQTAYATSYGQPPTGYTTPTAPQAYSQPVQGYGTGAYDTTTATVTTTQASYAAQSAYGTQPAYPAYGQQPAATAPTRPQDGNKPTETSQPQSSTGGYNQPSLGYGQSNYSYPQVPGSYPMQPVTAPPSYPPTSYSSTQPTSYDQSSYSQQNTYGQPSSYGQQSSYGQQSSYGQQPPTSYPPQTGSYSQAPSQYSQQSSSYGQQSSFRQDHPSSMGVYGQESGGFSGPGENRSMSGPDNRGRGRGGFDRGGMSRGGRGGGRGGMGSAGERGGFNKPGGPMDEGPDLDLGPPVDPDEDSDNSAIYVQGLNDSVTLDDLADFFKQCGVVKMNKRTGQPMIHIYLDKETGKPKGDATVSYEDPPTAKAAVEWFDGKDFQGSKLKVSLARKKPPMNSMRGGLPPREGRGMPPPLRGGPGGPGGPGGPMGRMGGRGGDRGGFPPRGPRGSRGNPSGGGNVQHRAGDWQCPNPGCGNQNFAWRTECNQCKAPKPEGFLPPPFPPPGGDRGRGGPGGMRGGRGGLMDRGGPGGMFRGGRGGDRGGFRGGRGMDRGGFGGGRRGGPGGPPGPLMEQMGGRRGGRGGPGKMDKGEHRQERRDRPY
UniProt O95571: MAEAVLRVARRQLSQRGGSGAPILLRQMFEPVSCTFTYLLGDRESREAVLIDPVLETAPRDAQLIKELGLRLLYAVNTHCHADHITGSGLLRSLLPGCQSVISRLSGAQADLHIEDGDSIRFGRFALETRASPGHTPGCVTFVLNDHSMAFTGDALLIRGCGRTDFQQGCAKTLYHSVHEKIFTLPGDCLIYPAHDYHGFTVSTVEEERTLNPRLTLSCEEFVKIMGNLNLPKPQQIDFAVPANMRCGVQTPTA
UniProt Q16134: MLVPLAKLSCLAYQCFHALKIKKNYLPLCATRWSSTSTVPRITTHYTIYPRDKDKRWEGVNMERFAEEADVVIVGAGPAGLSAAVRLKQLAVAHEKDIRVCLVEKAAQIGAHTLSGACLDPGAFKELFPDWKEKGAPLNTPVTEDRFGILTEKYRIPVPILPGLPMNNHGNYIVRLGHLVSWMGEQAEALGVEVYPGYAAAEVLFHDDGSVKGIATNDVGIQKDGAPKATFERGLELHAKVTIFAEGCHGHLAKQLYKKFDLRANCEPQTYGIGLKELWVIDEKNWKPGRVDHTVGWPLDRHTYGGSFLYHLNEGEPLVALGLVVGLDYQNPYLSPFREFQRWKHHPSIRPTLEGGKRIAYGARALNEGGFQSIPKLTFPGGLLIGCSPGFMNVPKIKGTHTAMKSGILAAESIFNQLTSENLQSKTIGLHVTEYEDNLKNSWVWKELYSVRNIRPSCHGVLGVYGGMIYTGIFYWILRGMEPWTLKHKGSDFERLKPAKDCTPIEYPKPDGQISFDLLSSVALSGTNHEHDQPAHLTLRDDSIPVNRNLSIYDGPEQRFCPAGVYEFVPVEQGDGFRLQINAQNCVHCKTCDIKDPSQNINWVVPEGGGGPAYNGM
UniProt Q96PL5: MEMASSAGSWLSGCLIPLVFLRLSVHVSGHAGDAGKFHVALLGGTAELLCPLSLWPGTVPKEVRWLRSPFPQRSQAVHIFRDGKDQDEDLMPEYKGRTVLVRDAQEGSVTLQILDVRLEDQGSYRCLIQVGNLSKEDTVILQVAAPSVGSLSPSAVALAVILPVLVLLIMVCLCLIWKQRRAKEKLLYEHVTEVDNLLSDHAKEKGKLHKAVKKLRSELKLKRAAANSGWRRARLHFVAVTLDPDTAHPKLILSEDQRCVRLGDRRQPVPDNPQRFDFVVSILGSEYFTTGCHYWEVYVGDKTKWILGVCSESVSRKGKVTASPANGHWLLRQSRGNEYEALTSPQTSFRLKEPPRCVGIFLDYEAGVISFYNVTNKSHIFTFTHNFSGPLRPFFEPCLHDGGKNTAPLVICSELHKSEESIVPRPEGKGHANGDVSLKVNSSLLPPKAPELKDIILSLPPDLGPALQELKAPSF
UniProt Q9UNN5: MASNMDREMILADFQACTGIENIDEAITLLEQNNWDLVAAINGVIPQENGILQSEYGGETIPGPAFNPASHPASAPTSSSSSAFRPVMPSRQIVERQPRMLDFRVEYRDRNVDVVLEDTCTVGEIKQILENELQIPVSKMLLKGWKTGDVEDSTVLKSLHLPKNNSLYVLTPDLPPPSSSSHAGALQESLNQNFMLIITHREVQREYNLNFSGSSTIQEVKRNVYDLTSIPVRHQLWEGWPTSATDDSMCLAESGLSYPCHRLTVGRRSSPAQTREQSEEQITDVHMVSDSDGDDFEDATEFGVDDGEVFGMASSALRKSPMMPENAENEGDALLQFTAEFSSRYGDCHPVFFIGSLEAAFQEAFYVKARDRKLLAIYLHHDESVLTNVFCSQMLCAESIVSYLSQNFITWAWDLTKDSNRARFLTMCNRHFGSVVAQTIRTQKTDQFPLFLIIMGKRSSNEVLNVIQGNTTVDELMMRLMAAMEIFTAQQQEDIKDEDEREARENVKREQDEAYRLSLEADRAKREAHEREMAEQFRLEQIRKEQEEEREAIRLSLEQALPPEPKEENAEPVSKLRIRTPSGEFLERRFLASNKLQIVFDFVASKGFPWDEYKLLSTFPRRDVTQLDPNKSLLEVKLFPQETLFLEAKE
UniProt Q96EK7: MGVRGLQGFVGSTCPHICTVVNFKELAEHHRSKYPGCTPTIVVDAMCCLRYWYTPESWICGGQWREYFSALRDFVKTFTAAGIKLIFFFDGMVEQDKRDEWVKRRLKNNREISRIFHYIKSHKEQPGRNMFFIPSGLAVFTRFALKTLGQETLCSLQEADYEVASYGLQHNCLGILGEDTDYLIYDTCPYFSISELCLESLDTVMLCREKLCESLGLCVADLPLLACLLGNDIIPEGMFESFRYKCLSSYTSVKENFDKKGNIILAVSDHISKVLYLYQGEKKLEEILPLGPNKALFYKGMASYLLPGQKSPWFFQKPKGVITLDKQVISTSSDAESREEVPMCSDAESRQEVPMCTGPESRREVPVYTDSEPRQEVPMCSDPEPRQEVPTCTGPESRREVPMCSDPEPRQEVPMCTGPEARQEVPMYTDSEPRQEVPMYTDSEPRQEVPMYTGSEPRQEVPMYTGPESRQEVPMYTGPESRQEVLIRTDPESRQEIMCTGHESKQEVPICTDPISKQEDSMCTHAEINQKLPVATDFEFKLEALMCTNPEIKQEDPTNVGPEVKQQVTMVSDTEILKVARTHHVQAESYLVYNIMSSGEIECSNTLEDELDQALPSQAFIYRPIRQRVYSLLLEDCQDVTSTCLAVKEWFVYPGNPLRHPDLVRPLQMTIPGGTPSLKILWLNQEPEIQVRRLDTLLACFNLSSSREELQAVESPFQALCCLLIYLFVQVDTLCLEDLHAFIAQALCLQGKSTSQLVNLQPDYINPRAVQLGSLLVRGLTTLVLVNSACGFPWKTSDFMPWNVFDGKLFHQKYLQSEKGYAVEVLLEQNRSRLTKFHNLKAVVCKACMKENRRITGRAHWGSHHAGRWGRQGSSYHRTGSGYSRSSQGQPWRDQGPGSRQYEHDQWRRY
UniProt Q7Z2K6: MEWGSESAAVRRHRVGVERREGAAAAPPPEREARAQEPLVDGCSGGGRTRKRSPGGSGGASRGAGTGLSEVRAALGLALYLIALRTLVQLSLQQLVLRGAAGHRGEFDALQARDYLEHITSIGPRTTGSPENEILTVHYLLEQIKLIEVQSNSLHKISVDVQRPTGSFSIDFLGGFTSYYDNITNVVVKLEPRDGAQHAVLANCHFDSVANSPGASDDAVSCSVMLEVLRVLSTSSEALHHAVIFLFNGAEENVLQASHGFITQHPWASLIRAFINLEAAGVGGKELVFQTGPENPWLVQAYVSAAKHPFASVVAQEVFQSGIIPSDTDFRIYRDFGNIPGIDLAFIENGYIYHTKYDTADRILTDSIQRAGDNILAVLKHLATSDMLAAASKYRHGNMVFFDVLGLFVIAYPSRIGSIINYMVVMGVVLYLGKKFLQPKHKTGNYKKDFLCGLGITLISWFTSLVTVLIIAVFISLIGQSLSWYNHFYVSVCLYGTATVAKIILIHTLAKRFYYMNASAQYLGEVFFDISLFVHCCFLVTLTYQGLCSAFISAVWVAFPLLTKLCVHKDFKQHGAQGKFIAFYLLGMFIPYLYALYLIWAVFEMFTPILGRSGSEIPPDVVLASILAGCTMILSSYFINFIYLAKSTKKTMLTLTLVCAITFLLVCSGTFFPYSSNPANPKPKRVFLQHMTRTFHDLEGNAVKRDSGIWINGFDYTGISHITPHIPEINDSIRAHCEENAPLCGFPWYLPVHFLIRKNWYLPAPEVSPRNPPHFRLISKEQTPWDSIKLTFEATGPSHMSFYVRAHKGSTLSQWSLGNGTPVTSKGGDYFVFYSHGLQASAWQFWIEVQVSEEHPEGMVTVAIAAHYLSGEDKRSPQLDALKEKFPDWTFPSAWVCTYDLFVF
UniProt Q5BKY9: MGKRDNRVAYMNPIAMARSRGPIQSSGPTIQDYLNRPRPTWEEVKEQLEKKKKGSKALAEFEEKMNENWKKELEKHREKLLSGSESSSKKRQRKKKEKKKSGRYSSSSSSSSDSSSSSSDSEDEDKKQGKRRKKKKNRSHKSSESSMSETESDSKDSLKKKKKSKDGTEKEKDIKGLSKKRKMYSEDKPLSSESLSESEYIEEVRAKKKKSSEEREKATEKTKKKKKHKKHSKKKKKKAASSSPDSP
UniProt Q15024, whole entry, looked up: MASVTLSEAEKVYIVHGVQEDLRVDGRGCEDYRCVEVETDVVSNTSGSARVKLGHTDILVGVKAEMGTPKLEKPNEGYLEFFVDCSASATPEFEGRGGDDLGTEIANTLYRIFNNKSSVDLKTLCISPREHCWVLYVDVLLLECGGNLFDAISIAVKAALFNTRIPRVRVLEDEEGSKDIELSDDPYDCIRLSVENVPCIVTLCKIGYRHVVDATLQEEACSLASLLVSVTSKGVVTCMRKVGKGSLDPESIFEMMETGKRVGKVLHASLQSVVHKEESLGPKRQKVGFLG
UniProt Q9H501: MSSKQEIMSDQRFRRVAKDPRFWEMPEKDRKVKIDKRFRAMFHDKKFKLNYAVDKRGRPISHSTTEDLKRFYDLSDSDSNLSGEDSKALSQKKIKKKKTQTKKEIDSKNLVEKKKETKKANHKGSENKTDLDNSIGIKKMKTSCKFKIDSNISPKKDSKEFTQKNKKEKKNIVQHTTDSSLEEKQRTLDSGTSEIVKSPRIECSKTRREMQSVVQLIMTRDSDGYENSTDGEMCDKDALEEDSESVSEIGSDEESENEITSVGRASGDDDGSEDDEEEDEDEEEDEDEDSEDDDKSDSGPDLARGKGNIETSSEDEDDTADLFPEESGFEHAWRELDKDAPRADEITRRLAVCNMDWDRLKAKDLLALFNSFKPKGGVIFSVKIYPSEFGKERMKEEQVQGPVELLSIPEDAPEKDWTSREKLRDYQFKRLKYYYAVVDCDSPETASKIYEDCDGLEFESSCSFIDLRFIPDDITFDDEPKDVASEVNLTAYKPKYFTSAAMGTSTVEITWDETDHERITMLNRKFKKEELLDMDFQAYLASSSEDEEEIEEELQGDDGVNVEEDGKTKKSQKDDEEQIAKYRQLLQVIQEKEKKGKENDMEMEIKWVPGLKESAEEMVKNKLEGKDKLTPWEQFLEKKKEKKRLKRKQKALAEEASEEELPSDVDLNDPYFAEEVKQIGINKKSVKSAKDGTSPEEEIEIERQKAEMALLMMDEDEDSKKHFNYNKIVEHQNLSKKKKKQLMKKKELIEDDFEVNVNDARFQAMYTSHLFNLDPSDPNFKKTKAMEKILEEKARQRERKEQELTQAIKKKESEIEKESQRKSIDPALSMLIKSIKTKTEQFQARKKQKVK
UniProt Q5JUQ0: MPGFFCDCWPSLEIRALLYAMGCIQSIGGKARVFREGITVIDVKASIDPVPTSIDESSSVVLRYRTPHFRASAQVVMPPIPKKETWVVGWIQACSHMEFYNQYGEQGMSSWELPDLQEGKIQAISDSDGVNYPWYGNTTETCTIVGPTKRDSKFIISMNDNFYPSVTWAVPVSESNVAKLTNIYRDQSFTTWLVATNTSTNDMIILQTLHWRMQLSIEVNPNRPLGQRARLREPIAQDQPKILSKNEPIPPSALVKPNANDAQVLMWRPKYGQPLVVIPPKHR

Legend:
Experiment in all cases: log2 fold change, soluble protein after heating vs DMSO (PISA); higher = thermal stabilisation; K562 lysate, 10 uM; active = over 0.2 and 3.5 SD of the protein, either way, in both replicates (recomputed)
alvocidib = compound: CN1CC[C@H](c2c(O)cc(O)c3c(=O)cc(-c4ccccc4Cl)oc23)[C@H](O)C1 [alvocidib]
Method in brief: (§1)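 The values are log-two fold changes in thermal stability compared with solvent controls and come from duplicates. They were obtained by TMTpro 16plex LC-MS/MS, with channel sums equalised, on the supernatant after 21,000xg for 90 min. That supernatant came from crude K562 extract at 1 mg/mL protein treated with 10 μM compound for 30 min, heated for 3 min across 48°C-58°C, pooled and brought to 0.5% NP-40 at 4°C.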

Tubastatin A = compound: CN1CCc2c(c3ccccc3n2Cc2ccc(C(=O)NO)cc2)C1 [Tubastatin A]
Method in brief: as §1

[1] = compound: CNC(=O)C1=CC=CC=C1NC2=NC(=NC=C2Cl)NC3=C(C=C(C=C3)N4CCOCC4)OC
Method in brief: as §1

defactinib = compound: CNC(=O)c1ccc(Nc2ncc(C(F)(F)F)c(NCc3nccnc3N(C)S(C)(=O)=O)n2)cc1 [defactinib]
Method in brief: as §1

[2] = compound: CNc1nc(-c2ccc3c(N)n[nH]c3c2)cc(N2C[C@@H](C(=O)NC3CCCCC3)CC[C@H]2C)n1
Method in brief: as §1

encorafenib = compound: COC(=O)N[C@@H](C)CNc1nccc(-c2cn(C(C)C)nc2-c2cc(Cl)cc(NS(C)(=O)=O)c2F)n1 [encorafenib]
Method in brief: as §1

[3] = compound: COC(=O)[C@H](CCSC)NC(=O)C1=C(C=C(C=C1)NC[C@H](CS)N)C2=CC=CC=C2
Method in brief: as §1

alisertib = compound: COc1cc(Nc2ncc3c(n2)-c2ccc(Cl)cc2C(c2c(F)cccc2OC)=NC3)ccc1C(=O)O [alisertib]
Method in brief: as §1

[4] = compound: COc1cc2nc(-c3cc(F)ccc3O)nc(N[C@@H]3CNC[C@H]3C(C)(C)O)c2cc1OC
Method in brief: as §1

gefitinib = compound: COc1cc2ncnc(Nc3ccc(F)c(Cl)c3)c2cc1OCCCN1CCOCC1 [gefitinib]
Method in brief: as §1

lapatinib = compound: CS(=O)(=O)CCNCc1ccc(-c2ccc3ncnc(Nc4ccc(OCc5cccc(F)c5)c(Cl)c4)c3c2)o1 [lapatinib]
Method in brief: as §1

pictilisib = compound: CS(=O)(=O)N1CCN(Cc2cc3nc(-c4cccc5[nH]ncc45)nc(N4CCOCC4)c3s2)CC1 [pictilisib]
Method in brief: as §1

crizotinib = compound: C[C@@H](Oc1cc(-c2cnn(C3CCNCC3)c2)cnc1N)c1c(Cl)ccc(F)c1Cl [crizotinib]
Method in brief: as §1

[5] = compound: C[C@H](C1=CC=C(C=C1)C(=O)NC2=C3C=CNC3=NC=C2)N
Method in brief: as §1

duvelisib = compound: C[C@H](Nc1ncnc2nc[nH]c12)c1cc2cccc(Cl)c2c(=O)n1-c1ccccc1 [duvelisib]
Method in brief: as §1

gandotinib = compound: Cc1cc(Nc2cc(CN3CCOCC3)c3nc(C)c(Cc4ccc(Cl)cc4F)n3n2)n[nH]1 [gandotinib]
Method in brief: as §1

tozasertib = compound: Cc1cc(Nc2cc(N3CCN(C)CC3)nc(Sc3ccc(NC(=O)C4CC4)cc3)n2)n[nH]1 [tozasertib]
Method in brief: as §1

doramapimod = compound: Cc1ccc(-n2nc(C(C)(C)C)cc2NC(=O)Nc2ccc(OCCN3CCOCC3)c3ccccc23)cc1 [doramapimod]
Method in brief: as §1

bafetinib = compound: Cc1ccc(NC(=O)c2ccc(CN3CC[C@H](N(C)C)C3)c(C(F)(F)F)c2)cc1Nc1nccc(-c2cncnc2)n1 [bafetinib]
Method in brief: as §1

[6] = compound: Cc1cccc(CC(=O)N2CCc3c2ccc(-c2cn(C)c4ncnc(N)c24)c3F)n1
Method in brief: as §1

Measured: log2 fold change

FAF2 (UniProt Q96CS3)
inactive: alvocidib 0.035 | Tubastatin A 0.001 | [1] 0.013 | defactinib -0.028 | [2] -0.002 | encorafenib 0.015 | [3] -0.013 | alisertib -0.074 | [4] -0.017 | gefitinib 0.008 | lapatinib 0.006 | pictilisib -0.015 | crizotinib -0.062 | [5] -0.044 | duvelisib -0.03 | gandotinib -0.051 | tozasertib 0.05 | doramapimod 0.023 | bafetinib -0.08 | [6] -0.003

EWSR1 isoform 5 (UniProt Q01844)
inactive: alvocidib -0.002 | Tubastatin A 0.101 | [1] -0.017 | defactinib -0.011 | [2] 0.021 | encorafenib -0.022 | [3] -0.036 | alisertib 0.049 | [4] -0.005 | gefitinib -0.003 | lapatinib -0.008 | pictilisib 0.021 | crizotinib 0.048 | [5] -0.07 | duvelisib -0.047 | gandotinib 0.061 | tozasertib -0.016 | doramapimod -0.025 | bafetinib 0.031 | [6] 0.009

ERO1B (UniProt Q86YB8)
inactive: alvocidib -0.082 | Tubastatin A 0.082 | [1] -0.04 | defactinib -0.002 | [2] 0.008 | encorafenib 0.057 | [3] 0.045 | alisertib -0.005 | [4] 0.026 | gefitinib 0.008 | lapatinib -0.041 | pictilisib -0.077 | crizotinib 0.007 | [5] -0.098 | duvelisib 0.061 | gandotinib 0.053 | tozasertib -0.034 | doramapimod -0.016 | bafetinib -0.027 | [6] -0.121

ETHE1 (UniProt O95571)
inactive: alvocidib -0.076 | Tubastatin A 0.035 | [1] -0.014 | defactinib -0.008 | [2] -0.021 | encorafenib 0.008 | [3] 0.037 | alisertib 0.094 | [4] 0.022 | gefitinib -0.14 | lapatinib 0.049 | pictilisib -0.049 | crizotinib -0.022 | [5] -0.034 | duvelisib -0.011 | gandotinib 0.016 | tozasertib -0.06 | doramapimod 0.005 | bafetinib 0.038 | [6] 0.018

ETFDH (UniProt Q16134)
inactive: alvocidib 0.009 | Tubastatin A 0.044 | [1] -0.006 | defactinib -0.026 | [2] 0.146 | encorafenib -0.033 | [3] -0.038 | alisertib -0.002 | [4] -0.041 | gefitinib -0.012 | lapatinib -0.03 | pictilisib -0.024 | crizotinib 0.015 | [5] 0.009 | duvelisib -0.057 | gandotinib -0.005 | tozasertib 0.039 | doramapimod 0.035 | bafetinib 0.023 | [6] 0.021

Copied from above (2 entries):
EWSR1 isoform 5 (UniProt Q01844)
inactive: alvocidib -0.002 | Tubastatin A 0.101 | [1] -0.017 | defactinib -0.011 | [2] 0.021 | encorafenib -0.022 | [3] -0.036 | alisertib 0.049 | [4] -0.005 | gefitinib -0.003 | lapatinib -0.008 | pictilisib 0.021 | crizotinib 0.048 | [5] -0.07 | duvelisib -0.047 | gandotinib 0.061 | tozasertib -0.016 | doramapimod -0.025 | bafetinib 0.031 | [6] 0.009

ERO1B (UniProt Q86YB8)
inactive: alvocidib -0.082 | Tubastatin A 0.082 | [1] -0.04 | defactinib -0.002 | [2] 0.008 | encorafenib 0.057 | [3] 0.045 | alisertib -0.005 | [4] 0.026 | gefitinib 0.008 | lapatinib -0.041 | pictilisib -0.077 | crizotinib 0.007 | [5] -0.098 | duvelisib 0.061 | gandotinib 0.053 | tozasertib -0.034 | doramapimod -0.016 | bafetinib -0.027 | [6] -0.121

Next results

ERMAP (UniProt Q96PL5)
inactive: alvocidib -0.057 | Tubastatin A 0.025 | [1] 0.013 | defactinib -0.081 | [2] -0.002 | encorafenib -0.029 | [3] -0.04 | alisertib -0.016 | [4] 0.059 | gefitinib -0.054 | lapatinib -0.053 | pictilisib -0.012 | crizotinib -0.011 | [5] -0.104 | duvelisib -0.018 | gandotinib 0.102 | tozasertib 0.003 | doramapimod -0.041 | bafetinib -0.095 | [6] 0.121

FAF1 (UniProt Q9UNN5)
inactive: alvocidib -0.017 | Tubastatin A 0 | [1] -0.012 | defactinib 0.011 | [2] -0.04 | encorafenib 0.043 | [3] -0.048 | alisertib -0.026 | [4] -0.01 | gefitinib 0 | lapatinib 0.009 | pictilisib 0 | crizotinib 0.042 | [5] -0.007 | duvelisib 0.034 | gandotinib 0.035 | tozasertib 0.017 | doramapimod 0 | bafetinib 0.004 | [6] -0.011

FAM120B (UniProt Q96EK7)
inactive: alvocidib -0.005 | Tubastatin A -0.063 | [1] 0.016 | defactinib 0.073 | [2] -0.02 | encorafenib 0.029 | [3] 0.034 | alisertib -0.007 | [4] -0.001 | gefitinib 0.021 | lapatinib 0.041 | pictilisib -0.012 | crizotinib -0.021 | [5] -0.018 | duvelisib -0.021 | gandotinib -0.051 | tozasertib -0.064 | doramapimod 0.021 | bafetinib -0.045 | [6] 0.045

ERMP1 (UniProt Q7Z2K6)
inactive: alvocidib -0.024 | Tubastatin A 0.065 | [1] 0.032 | defactinib -0.022 | [2] 0.058 | encorafenib 0.044 | [3] -0.035 | alisertib -0.002 | [4] -0.058 | gefitinib 0.01 | lapatinib -0.006 | pictilisib -0.023 | crizotinib -0.014 | [5] -0.069 | duvelisib -0.036 | gandotinib 0.122 | tozasertib -0.008 | doramapimod -0.021 | bafetinib 0.019 | [6] 0.054

EXOSC9 (UniProt Q06265)
inactive: alvocidib 0.008 | Tubastatin A 0.045 | [1] 0.001 | defactinib -0.052 | [2] 0.04 | encorafenib 0.026 | [3] -0.111 | alisertib 0.001 | [4] 0.01 | gefitinib -0.037 | lapatinib -0.01 | pictilisib 0.029 | crizotinib 0.009 | [5] 0.039 | duvelisib 0.023 | gandotinib 0.007 | tozasertib -0.007 | doramapimod -0.007 | bafetinib -0.002 | [6] -0.016

FAM133B (UniProt Q5BKY9)
inactive: alvocidib 0.103 | Tubastatin A 0.018 | [1] -0.21 | defactinib -0.021 | [2] 0.002 | encorafenib 0.039 | [3] -0.071 | alisertib 0.056 | [4] -0.093 | gefitinib 0.184 | lapatinib -0.027 | pictilisib 0.154 | crizotinib 0.041 | [5] 0.18 | duvelisib -0.035 | gandotinib -0.151 | tozasertib 0.079 | doramapimod -0.046 | bafetinib -0.084 | [6] -0.178

EXOSC7 (UniProt Q15024)
inactive: alvocidib -0.082 | Tubastatin A 0.038 | [1] -0.027 | defactinib -0.012 | [2] 0.048 | encorafenib 0.004 | [3] -0.034 | alisertib 0.035 | [4] 0.011 | gefitinib 0.009 | lapatinib -0.022 | pictilisib 0.003 | crizotinib -0.011 | [5] -0.149 | duvelisib 0.072 | gandotinib 0.07 | tozasertib 0.018 | doramapimod 0.023 | bafetinib -0.057 | [6] 0.055

EZR (UniProt P15311)
inactive: alvocidib 0.058 | Tubastatin A 0.05 | [1] -0.012 | defactinib -0.007 | [2] 0.003 | encorafenib -0.04 | [3] 0.006 | alisertib -0.009 | [4] -0.005 | gefitinib -0.009 | lapatinib -0.011 | pictilisib -0.011 | crizotinib 0.036 | [5] 0.118 | duvelisib -0.036 | gandotinib -0.03 | tozasertib -0.011 | doramapimod 0.005 | bafetinib 0.006 | [6] -0.084

ESF1 (UniProt Q9H501)
inactive: alvocidib 0.005 | Tubastatin A 0.007 | [1] 0.049 | defactinib 0.013 | [2] -0.011 | encorafenib 0.071 | [3] -0.006 | alisertib -0.016 | [4] -0.123 | gefitinib -0.006 | lapatinib -0.106 | pictilisib 0.026 | crizotinib -0.017 | [5] -0.041 | duvelisib 0.05 | gandotinib 0.061 | tozasertib 0.062 | doramapimod 0.019 | bafetinib -0.088 | [6] 0.045

FAM78A (UniProt Q5JUQ0)
inactive: alvocidib 0.049 | Tubastatin A 0.125 | [1] 0.008 | defactinib 0.003 | [2] -0.03 | encorafenib -0.019 | [3] 0.126 | alisertib -0.015 | [4] 0.118 | gefitinib -0.058 | lapatinib 0.099 | pictilisib 0.092 | crizotinib -0.093 | [5] -0.051 | duvelisib 0.082 | gandotinib 0.013 | tozasertib -0.05 | doramapimod -0.034 | bafetinib -0.029 | [6] 0.03

EXOC5 (UniProt O00471)
inactive: alvocidib 0.004 | Tubastatin A -0.064 | [1] -0.011 | defactinib 0.007 | [2] -0.07 | encorafenib 0.029 | [3] -0.102 | alisertib 0.029 | [4] -0.025 | gefitinib 0.002 | lapatinib -0.012 | pictilisib 0.017 | crizotinib -0.067 | [5] 0.055 | duvelisib -0.027 | gandotinib -0.202 | tozasertib 0.025 | doramapimod 0.027 | bafetinib -0.033 | [6] 0.003
